Results: PubChem BioAssay (NCATS)
This is one part of the list. Shown are side measurements of this screen, not its main read-out; they come without a call. Most of these compounds were active or inconclusive in the main read-out, so they are no random draw. Potencies come from curve fits of mixed quality, noted in brackets.

assay: qHTS Assay for Inhibitors of PDE-IV (AID 607); details: HEK293 ACTOne CNG channel cells, membrane potential fluorescence; measured here: parental cell counter-screen
Method in brief: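 The readout is membrane depolarisation from a cAMP-sensing CNG channel, detected with a potential dye at ex 535/em 590. Cells were HEK293-derived (endogenous PDE-IV) at 1000 cells/well, titrated up to 22.9 uM final.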

Structure (SMILES) | AC50
CN(Cc1ccco1)c1nc(-c2cccc(C#N)c2)nc2ccccc12 | 10 µM [rising, partial curve]
COc1ccc2nc3c(c([Si](C)(C)C(C)(C)C)c2c1)Cn1c-3cccc1=O | 15.8 µM [rising, single point]
CCC/C=C(\CCC)C(NS(=O)(=O)c1ccccc1)c1ccc(C(F)(F)F)cc1 (stereo not drawn) | 7.94 µM [rising, partial curve]
CCC/C=C(\CCC)C(NP(=O)(c1ccccc1)c1ccccc1)c1ccc(C(F)(F)F)cc1 (stereo not drawn) | 3.98 µM [rising, full curve, poor fit]
CC(C)c1cccc2c([Si](C)(C)C)c3c(nc12)-c1cccc(=O)n1C3 | 15.8 µM [rising, single point]
CCC(=O)N[C@@H]1Cc2ccccc2[C@@H](c2ccccc2)C1 | 10 µM [rising, partial curve]
CCN(CC)CCOC(=O)[C@@H](c1ccccc1)C1CCCCC1 | 7.94 µM [rising, single point]
O=C(c1cccc(F)c1)N1CCC2(CC1)CCN(c1ccncc1)CC2 | 7.94 µM [rising, partial curve]
C[C@@H](C(=O)Nc1ccc2ccccc2c1)[C@@H]1C[C@@]1(C)[C@@H](NC(=O)c1cnccn1)c1ccccc1 | 5.01 µM [rising, partial curve]
COc1ccc(C(=O)N2CCC3(CCCN(Cc4ccccc4)C3)CC2)cc1 | 12.6 µM [rising, single point]
COC(=O)N1CCC2(CCCN(C(=O)Nc3cccc(F)c3)C2)CC1 | 15.8 µM [rising, single point]
COC(=O)[C@@]1(Cc2ccccc2)[C@H]2c3cc(C(=O)N(C)C)n(Cc4ccc(OC)c(OC)c4)c3C[C@H]2CN1C(=O)c1ccccc1 | 12.6 µM [rising, single point]
COc1ccc(C(=O)N2CCC3(CCCN(Cc4ccncc4)C3)CC2)cc1 | 3.98 µM [rising, single point]

Taken from above for reference:
Structure (SMILES) | AC50
CCC(=O)N[C@@H]1Cc2ccccc2[C@@H](c2ccccc2)C1 | 10 µM [rising, partial curve]
CCN(CC)CCOC(=O)[C@@H](c1ccccc1)C1CCCCC1 | 7.94 µM [rising, single point]
O=C(c1cccc(F)c1)N1CCC2(CC1)CCN(c1ccncc1)CC2 | 7.94 µM [rising, partial curve]
